# Assay results as given in patent US20140243416A1, “Topical Antiandrogen Therapy for the Treatment of Becker's Nevus” (priority 2013, published 2014).
# “Also recorded” adds a separate entry of the source. At least one compound was matched to its structure with a doubt left.
# How the values were obtained:
# Becker's nevus = assay: Topical flutamide applied to a Becker's nevus (Example 1, single patient); type: in vivo, person; settings: topical 4% solution, twice daily
# Text: FIG. 1a (left) depicts a person with a Becker's nevus before the antiandrogen treatment as described in example 1. FIG. 1b (right) depicts a person after treatment with a topical antiandrogen, specifically topical flutamide. […] A topical 4% solution of flutamide was applied twice daily to a Becker's nevus. […] (FIG. 1)
# androgenetic alopecia = settings: topical application; cited from earlier work
# acne vulgaris = settings: topical application; cited from earlier work
compound,measurement,setting,value
"CC(C)C(=O)Nc1ccc([N+](=O)[O-])c(C(F)(F)F)c1 [flutamide, methyl-N-[4-nitro-3-(trifluoromethyl)phenyl]-propanamide]",change to the hypertrichosis in the area,Becker's nevus,No significant change
same,further improvement in the lesion compared to the eighth week,Becker's nevus; after 30 weeks of use,no further appreciable improvement
same,hyperpigmentation of the Becker's nevus lesion,Becker's nevus; after eight weeks of therapy,reduction in the hyperpigmentation; also recorded: significantly reduced
same,effects in treatment of androgenetic alopecia,androgenetic alopecia,some effects
same,effects in treatment of acne vulgaris,acne vulgaris,some effects
